No constants are given. Whether binding was seen depends on the method and setting. Binding seen in cells or lysates may run through a third protein. Some binding calls cover weakened binding; strength is not graded here.
Biological target: Hsf1-3xFLAG-V5 (S. cerevisiae) (UniProt P10961)
Test: co-IP; IP of Hsf1-3xFLAG-V5 from yeast lysate, Western blot with antiserum recognizing Ssa1/2; heat shock time course 25°C to 39°C; wild type and ydj1∆ cells

By UniProt entry, the sequences of proteins in these tests, tags left out.
UniProt P10961: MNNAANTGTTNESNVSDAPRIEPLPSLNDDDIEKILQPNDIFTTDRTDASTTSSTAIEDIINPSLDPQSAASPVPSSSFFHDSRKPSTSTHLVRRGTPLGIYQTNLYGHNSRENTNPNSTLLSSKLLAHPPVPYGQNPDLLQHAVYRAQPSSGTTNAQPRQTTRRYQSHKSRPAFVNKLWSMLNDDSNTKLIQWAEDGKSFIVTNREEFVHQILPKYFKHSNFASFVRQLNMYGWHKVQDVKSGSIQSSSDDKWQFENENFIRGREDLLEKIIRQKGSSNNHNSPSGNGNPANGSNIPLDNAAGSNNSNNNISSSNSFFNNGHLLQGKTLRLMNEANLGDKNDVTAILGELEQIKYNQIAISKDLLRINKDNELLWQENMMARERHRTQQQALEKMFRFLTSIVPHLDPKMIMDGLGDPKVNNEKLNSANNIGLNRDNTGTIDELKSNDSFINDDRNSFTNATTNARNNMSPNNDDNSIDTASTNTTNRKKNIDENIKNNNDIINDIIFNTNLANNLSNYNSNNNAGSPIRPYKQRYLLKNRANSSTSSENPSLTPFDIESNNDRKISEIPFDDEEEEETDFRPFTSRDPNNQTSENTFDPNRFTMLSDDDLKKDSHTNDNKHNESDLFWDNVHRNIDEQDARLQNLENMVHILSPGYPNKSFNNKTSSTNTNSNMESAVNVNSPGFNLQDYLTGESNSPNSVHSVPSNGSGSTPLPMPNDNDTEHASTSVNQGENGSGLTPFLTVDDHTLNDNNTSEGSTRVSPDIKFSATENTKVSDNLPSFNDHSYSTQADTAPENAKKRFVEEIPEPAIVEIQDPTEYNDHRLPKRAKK
UniProt P10591: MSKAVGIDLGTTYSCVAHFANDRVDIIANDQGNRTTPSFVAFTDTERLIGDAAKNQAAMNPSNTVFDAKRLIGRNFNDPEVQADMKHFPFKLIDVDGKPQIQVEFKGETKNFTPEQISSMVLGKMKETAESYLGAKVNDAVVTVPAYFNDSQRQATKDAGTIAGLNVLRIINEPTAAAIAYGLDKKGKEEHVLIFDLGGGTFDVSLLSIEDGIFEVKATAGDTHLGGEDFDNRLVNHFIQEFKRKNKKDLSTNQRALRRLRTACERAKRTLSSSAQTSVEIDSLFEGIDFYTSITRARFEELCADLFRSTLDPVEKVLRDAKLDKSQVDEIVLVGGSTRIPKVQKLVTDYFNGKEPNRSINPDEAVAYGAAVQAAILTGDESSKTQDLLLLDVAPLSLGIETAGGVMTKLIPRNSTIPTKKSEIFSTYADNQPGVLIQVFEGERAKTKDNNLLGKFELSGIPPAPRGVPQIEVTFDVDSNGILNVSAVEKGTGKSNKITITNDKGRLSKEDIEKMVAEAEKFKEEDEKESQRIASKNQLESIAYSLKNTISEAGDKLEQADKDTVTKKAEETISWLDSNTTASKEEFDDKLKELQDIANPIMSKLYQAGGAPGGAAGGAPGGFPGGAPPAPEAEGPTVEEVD

Ssa1 (from UniProt P10591 1-642)
binding: binds

Reference: paper PMC5127643
